Reference: the supplement of paper PMC6411743
± gives the standard deviation of the averaged measurements. The list shows a part of the results.

Protein sequences, listed by entry. Tags and fused reporters are not part of them. Lines headed by an entry give the natural chain unless they say otherwise; changes in a name come on top.
UniProt Q14061: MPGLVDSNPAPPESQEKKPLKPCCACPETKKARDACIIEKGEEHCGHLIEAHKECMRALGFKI
UniProt Q08722, whole entry: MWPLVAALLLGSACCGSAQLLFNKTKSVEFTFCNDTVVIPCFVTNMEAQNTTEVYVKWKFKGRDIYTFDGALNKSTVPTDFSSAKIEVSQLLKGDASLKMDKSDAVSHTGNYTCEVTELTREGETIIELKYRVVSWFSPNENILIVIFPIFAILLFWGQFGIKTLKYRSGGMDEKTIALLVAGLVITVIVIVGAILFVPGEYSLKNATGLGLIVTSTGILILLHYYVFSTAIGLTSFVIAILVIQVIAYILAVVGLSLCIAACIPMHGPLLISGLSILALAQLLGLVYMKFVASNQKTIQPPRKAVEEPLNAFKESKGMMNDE
UniProt Q12996: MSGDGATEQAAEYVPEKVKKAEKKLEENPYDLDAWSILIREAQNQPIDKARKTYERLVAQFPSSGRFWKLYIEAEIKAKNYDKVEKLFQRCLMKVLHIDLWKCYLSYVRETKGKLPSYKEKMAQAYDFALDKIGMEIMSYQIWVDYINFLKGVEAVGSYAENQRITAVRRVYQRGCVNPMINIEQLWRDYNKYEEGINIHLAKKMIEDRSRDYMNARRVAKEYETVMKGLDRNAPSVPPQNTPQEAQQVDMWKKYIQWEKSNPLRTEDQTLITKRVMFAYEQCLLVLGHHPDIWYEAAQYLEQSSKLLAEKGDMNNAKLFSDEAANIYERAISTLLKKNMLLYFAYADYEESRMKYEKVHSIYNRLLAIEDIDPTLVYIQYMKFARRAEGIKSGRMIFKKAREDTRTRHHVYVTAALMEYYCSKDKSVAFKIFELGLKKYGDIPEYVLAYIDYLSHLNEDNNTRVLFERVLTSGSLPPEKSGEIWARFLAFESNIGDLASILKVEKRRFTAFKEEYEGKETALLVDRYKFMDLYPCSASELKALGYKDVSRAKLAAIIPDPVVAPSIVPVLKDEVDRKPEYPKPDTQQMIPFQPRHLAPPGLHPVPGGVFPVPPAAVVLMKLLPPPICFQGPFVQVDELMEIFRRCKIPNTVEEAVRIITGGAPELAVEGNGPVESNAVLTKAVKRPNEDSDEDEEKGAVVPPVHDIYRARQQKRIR
UniProt Q13795: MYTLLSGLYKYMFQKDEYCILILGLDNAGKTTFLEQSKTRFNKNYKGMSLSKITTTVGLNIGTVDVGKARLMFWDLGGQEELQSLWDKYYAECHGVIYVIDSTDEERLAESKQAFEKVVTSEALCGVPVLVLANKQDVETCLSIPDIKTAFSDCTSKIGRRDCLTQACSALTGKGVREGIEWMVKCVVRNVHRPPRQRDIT
UniProt Q02790: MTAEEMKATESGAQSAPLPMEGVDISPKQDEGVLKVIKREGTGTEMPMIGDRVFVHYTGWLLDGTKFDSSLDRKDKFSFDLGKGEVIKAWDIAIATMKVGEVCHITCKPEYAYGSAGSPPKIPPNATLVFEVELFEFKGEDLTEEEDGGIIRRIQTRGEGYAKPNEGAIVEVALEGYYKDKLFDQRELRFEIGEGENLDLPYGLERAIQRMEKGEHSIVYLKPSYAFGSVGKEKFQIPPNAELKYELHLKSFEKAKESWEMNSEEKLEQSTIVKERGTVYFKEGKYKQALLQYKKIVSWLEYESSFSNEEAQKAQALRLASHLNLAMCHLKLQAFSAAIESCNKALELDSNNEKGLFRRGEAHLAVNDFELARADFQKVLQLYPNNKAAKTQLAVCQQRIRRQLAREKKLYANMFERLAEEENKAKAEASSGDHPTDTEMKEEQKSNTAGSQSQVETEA
UniProt Q13216, whole entry: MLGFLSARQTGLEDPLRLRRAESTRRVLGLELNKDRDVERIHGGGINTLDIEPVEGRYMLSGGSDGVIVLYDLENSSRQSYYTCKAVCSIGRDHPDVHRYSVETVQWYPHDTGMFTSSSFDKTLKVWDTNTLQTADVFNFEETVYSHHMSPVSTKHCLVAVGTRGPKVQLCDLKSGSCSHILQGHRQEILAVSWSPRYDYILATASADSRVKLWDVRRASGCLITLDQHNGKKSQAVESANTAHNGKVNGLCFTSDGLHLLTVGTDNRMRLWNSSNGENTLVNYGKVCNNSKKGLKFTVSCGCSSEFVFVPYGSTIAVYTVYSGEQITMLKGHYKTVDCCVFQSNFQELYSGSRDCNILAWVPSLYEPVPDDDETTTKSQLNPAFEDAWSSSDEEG
UniProt Q13409, whole entry: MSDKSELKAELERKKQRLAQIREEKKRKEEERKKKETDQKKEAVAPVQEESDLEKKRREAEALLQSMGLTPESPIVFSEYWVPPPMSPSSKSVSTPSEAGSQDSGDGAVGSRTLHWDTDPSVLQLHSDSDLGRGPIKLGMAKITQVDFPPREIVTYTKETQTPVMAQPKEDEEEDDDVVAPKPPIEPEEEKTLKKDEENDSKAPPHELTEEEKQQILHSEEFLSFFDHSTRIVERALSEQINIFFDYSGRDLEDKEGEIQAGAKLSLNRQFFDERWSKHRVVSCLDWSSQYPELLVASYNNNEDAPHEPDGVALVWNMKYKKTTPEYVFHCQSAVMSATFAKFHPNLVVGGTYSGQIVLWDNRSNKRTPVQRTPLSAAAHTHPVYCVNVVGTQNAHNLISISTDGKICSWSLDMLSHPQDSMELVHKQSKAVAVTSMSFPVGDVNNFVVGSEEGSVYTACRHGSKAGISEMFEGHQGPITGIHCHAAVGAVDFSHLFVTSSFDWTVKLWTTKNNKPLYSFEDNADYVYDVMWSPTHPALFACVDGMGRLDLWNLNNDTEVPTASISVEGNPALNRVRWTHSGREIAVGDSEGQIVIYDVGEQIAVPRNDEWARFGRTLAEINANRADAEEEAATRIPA
UniProt Q13442: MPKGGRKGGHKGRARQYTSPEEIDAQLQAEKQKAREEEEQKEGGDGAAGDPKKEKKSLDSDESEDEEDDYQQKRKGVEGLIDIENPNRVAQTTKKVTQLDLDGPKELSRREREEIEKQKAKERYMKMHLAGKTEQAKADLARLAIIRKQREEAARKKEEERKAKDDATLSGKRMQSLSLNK
UniProt Q12959, whole entry, looked up: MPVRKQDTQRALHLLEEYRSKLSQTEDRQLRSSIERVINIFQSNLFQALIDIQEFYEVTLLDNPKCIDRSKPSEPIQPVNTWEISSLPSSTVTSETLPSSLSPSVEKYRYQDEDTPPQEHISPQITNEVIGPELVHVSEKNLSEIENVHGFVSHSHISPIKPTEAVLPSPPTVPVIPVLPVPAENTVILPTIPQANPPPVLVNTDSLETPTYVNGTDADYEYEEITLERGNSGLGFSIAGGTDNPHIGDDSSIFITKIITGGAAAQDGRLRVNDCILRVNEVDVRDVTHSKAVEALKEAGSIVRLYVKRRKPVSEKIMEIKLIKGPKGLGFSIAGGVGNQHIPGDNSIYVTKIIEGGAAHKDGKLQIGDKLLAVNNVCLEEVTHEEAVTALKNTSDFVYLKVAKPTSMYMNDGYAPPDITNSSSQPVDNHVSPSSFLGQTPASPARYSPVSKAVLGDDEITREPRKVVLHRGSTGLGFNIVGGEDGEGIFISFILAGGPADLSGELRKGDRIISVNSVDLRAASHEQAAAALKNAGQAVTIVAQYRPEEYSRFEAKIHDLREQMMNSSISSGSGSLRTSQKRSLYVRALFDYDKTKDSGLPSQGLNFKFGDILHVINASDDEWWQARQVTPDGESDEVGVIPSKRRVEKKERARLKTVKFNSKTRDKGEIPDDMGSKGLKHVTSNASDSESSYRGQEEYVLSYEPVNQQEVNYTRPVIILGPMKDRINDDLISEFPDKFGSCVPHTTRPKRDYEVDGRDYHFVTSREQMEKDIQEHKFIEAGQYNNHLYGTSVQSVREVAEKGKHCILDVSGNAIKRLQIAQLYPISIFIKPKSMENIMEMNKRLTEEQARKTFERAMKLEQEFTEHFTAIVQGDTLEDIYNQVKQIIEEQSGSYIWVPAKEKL
UniProt Q13546: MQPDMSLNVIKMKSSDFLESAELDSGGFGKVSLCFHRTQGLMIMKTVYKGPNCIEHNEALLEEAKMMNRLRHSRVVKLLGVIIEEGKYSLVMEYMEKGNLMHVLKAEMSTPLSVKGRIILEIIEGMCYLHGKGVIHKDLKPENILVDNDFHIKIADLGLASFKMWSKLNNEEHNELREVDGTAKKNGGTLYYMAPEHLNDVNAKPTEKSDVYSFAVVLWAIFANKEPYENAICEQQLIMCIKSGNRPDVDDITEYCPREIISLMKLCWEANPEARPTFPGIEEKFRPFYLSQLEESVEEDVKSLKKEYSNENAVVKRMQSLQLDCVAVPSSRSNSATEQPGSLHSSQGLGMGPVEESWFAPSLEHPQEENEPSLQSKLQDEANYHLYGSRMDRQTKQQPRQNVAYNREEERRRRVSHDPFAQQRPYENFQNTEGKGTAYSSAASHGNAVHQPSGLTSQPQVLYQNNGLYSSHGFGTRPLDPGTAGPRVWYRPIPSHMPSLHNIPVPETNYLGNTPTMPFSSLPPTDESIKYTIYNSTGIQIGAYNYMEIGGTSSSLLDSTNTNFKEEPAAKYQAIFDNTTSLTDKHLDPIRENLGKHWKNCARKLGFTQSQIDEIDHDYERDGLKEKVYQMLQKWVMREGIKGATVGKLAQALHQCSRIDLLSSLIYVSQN
UniProt Q12888: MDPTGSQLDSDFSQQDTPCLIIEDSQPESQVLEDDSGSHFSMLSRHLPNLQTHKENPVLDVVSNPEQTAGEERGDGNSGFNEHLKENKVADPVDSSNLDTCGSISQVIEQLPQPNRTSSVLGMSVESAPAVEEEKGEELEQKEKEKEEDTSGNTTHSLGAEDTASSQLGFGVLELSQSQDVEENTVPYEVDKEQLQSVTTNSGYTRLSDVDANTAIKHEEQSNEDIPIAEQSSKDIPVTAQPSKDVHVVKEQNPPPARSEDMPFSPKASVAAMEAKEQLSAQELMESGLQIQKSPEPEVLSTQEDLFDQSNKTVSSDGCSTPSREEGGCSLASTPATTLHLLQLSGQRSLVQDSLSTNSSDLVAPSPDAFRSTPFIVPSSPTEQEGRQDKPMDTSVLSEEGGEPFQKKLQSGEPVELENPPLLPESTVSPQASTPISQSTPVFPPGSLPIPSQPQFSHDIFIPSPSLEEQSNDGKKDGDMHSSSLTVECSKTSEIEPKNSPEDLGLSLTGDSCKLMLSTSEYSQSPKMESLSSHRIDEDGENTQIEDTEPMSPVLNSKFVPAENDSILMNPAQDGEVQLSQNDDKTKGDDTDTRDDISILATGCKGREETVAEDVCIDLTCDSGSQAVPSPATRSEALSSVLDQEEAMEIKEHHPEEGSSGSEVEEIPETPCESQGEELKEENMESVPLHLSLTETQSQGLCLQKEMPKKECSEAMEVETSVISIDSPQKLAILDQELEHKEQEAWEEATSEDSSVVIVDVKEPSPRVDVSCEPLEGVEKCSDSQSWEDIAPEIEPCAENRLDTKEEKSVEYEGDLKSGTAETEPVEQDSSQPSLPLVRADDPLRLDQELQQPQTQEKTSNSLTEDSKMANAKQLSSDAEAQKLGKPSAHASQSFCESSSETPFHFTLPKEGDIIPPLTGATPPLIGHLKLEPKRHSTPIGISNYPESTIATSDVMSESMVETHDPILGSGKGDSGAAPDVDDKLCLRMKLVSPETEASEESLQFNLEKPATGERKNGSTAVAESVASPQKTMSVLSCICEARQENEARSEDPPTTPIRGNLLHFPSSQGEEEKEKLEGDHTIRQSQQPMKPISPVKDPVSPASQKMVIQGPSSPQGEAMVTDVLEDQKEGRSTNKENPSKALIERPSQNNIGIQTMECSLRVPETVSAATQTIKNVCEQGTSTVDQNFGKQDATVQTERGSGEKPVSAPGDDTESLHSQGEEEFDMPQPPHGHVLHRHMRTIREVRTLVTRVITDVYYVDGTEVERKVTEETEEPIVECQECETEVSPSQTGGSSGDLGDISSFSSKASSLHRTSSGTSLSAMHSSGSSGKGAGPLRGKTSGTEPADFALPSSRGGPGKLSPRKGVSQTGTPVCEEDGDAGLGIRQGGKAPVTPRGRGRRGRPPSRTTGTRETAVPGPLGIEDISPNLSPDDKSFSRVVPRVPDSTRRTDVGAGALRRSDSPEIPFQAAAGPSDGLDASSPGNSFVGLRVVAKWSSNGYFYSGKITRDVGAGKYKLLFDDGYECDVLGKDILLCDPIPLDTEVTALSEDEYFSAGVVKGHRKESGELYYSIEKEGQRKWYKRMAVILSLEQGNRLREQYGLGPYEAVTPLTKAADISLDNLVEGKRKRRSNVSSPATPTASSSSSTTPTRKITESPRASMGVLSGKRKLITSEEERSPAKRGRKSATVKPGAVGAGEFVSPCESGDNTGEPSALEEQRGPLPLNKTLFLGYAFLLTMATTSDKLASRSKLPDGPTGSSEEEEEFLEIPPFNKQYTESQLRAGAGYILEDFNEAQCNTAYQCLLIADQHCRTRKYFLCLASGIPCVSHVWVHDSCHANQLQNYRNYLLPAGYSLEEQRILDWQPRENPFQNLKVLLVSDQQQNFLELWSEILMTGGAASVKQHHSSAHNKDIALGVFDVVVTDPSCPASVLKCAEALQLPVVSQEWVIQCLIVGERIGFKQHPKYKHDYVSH

Compound: Nc1nc2c(ncn2[C@@H]2O[C@H](COP(=O)(O)OP(=O)(O)OP(=O)(O)O)[C@@H](O)[C@H]2O)c(=O)[nH]1 [guanosine triphosphate]
Assay: NP40-soluble protein abundance relative to vehicle (solubility fold change) (ratio); higher = more soluble protein in presence of GTP
In short: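 Data come from three independent experiments in which Dounce-homogenised Jurkat crude lysate was treated at eight concentrations from 0.1 to 10 mM. Treatment ran 10 min at room temperature and then 3 min at 37 °C, after which 0.8% NP40 and benzonase were added for 60 min at 4 °C before ultracentrifugation. The supernatant underwent TMT labelling and LC-MS/MS, and vsn-normalised intensities were expressed as fold change against the detergent-processed vehicle in each replicate.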

Target	NP40-soluble protein abundance (concentration: 0.1mM)	NP40-soluble protein abundance (concentration: 0.5mM)	NP40-soluble protein abundance (concentration: 1mM)	NP40-soluble protein abundance (concentration: 2mM)	NP40-soluble protein abundance (concentration: 4mM)	NP40-soluble protein abundance (concentration: 6mM)	NP40-soluble protein abundance (concentration: 8mM)	NP40-soluble protein abundance (concentration: 10mM)
COX17 (UniProt Q14061)	1.02 ± 0.042	0.9835 ± 0.0056	1.06 ± 0.026	0.996 ± 0.082	0.977 ± 0.023	0.941 ± 0.062	1.08 ± 0.024	1.032 ± 0.0052
UniProt Q02750	0.899 ± 0.071	0.955 ± 0.051	0.89 ± 0.051	0.857 ± 0.053	0.834 ± 0.05	0.856 ± 0.056	0.834 ± 0.071	0.847 ± 0.061
CD47 (UniProt Q08722)	0.821 ± 0.028	0.837 ± 0.062	0.876 ± 0.03	0.816 ± 0.06	0.802 ± 0.076	0.838 ± 0.068	0.779 ± 0.086	0.814 ± 0.055
CSTF3 (UniProt Q12996)	1.05 ± 0.014	1.046 ± 0.0039	1.03 ± 0.029	1.07 ± 0.053	1.1 ± 0.048	1.09 ± 0.039	1.09 ± 0.048	1.06 ± 0.031
UniProt Q13795 and related entries	1.09 ± 0.045	1.06 ± 0.12	0.994 ± 0.044	0.968 ± 0.031	0.937 ± 0.036	0.92 ± 0.065	0.87 ± 0.029	0.873 ± 0.1
BOP1 (UniProt Q14137)	1.03 ± 0.043	1.04 ± 0.026	1.03 ± 0.026	1.03 ± 0.022	1.01 ± 0.048	1.02 ± 0.013	0.994 ± 0.029	0.967 ± 0.035
UniProt Q12797 and related entries	1.04 ± 0.12	1.02 ± 0.028	0.986 ± 0.057	0.902 ± 0.15	0.985 ± 0.021	1.06 ± 0.08	0.974 ± 0.14	1.03 ± 0.033
UniProt Q06124 and related entries	0.969 ± 0.037	0.981 ± 0.031	0.929 ± 0.05	0.916 ± 0.067	0.886 ± 0.047	0.893 ± 0.063	0.876 ± 0.064	0.877 ± 0.07
FKBP4 (UniProt Q02790)	0.978 ± 0.025	1.01 ± 0.029	0.931 ± 0.023	0.92 ± 0.0088	0.885 ± 0.021	0.901 ± 0.016	0.877 ± 0.029	0.863 ± 0.044
MORC3 (UniProt Q14149)	1.03 ± 0.081	1 ± 0.054	0.988 ± 0.055	0.99 ± 0.045	1.01 ± 0.078	0.95 ± 0.05	0.947 ± 0.042	0.92 ± 0.034
UniProt Q01105-2	0.861 ± 0.073	0.834 ± 0.041	0.823 ± 0.18	0.988 ± 0.23	0.829 ± 0.19	0.958 ± 0.26	0.782 ± 0.13	1.03 ± 0.25
ERCC8 (UniProt Q13216)	1.11 ± 0.23	0.967 ± 0.14	1.03 ± 0.095	1.12 ± 0.21	1.04 ± 0.061	0.988 ± 0.035	1 ± 0.048	0.976 ± 0.034
SCARB2 (UniProt Q14108)	0.996 ± 0.061	0.968 ± 0.036	1.02 ± 0.11	0.949 ± 0.081	1.03 ± 0.14	0.974 ± 0.076	0.947 ± 0.13	1.01 ± 0.14
UniProt Q01804 and related entries	0.998 ± 0.079	1 ± 0.089	1.04 ± 0.044	1.01 ± 0.045	1.07 ± 0.044	1.03 ± 0.071	1.062 ± 0.0079	1.07 ± 0.03
UniProt Q13409 and related entries	0.962 ± 0.0076	1.07 ± 0.046	1.04 ± 0.061	1.08 ± 0.059	1.12 ± 0.15	1.11 ± 0.087	1.13 ± 0.14	1.16 ± 0.12
EXOSC10 (UniProt Q01780)	1.05 ± 0.018	1.09 ± 0.015	1.11 ± 0.012	1.19 ± 0.045	1.32 ± 0.075	1.37 ± 0.098	1.42 ± 0.14	1.45 ± 0.14
UniProt Q12802 and related entries	0.99 ± 0.12	1.01 ± 0.092	1.01 ± 0.099	1 ± 0.12	0.977 ± 0.11	1.04 ± 0.11	1.02 ± 0.1	1.02 ± 0.084
PDAP1 (UniProt Q13442)	1.02 ± 0.05	1 ± 0.045	1.11 ± 0.085	1.1 ± 0.078	1.2 ± 0.16	1.29 ± 0.09	1.38 ± 0.16	1.59 ± 0.21
SPAG1 (UniProt Q07617)	1.14 ± 0.23	1.03 ± 0.088	0.976 ± 0.065	0.976 ± 0.036	0.965 ± 0.043	0.973 ± 0.051	0.956 ± 0.053	0.978 ± 0.054
UniProt Q14257 and related entries	0.939 ± 0.04	0.958 ± 0.025	1.05 ± 0.079	1.01 ± 0.024	1.01 ± 0.014	0.982 ± 0.028	1.03 ± 0.077	0.968 ± 0.046
IDI1 (UniProt Q13907)	0.959 ± 0.072	0.945 ± 0.058	1.02 ± 0.1	0.91 ± 0.044	0.943 ± 0.13	0.913 ± 0.062	0.87 ± 0.12	0.868 ± 0.088
MLEC (UniProt Q14165)	1.01 ± 0.011	1.01 ± 0.038	0.932 ± 0.021	0.924 ± 0.039	0.907 ± 0.032	0.899 ± 0.04	0.874 ± 0.052	0.848 ± 0.083
UniProt Q12959-4|A0A0C4DFT3|Q12959 and related entries	1 ± 0.032	0.987 ± 0.036	0.952 ± 0.048	0.951 ± 0.085	0.908 ± 0.083	0.929 ± 0.1	0.912 ± 0.093	0.908 ± 0.085
UniProt Q14684 and related entries	0.96 ± 0.015	0.946 ± 0.033	1 ± 0.017	1.01 ± 0.026	1.03 ± 0.031	1.06 ± 0.044	1.087 ± 0.0059	1.15 ± 0.045
NUP160 (UniProt Q12769)	1.08 ± 0.067	1.11 ± 0.14	1.07 ± 0.12	1.1 ± 0.18	1.14 ± 0.17	1.1 ± 0.17	1.17 ± 0.11	1.19 ± 0.066
TRIM32 (UniProt Q13049)	1.045 ± 0.0031	1.029 ± 0.0045	1.01 ± 0.12	1.12 ± 0.16	1.09 ± 0.082	1.12 ± 0.15	1.11 ± 0.12	1.05 ± 0.058
LCP2 (UniProt Q13094)	0.9336 ± 0.0033	0.935 ± 0.055	0.998 ± 0.035	0.938 ± 0.065	0.92 ± 0.059	0.964 ± 0.083	0.967 ± 0.019	0.961 ± 0.019
RIPK1 (UniProt Q13546)	1.05 ± 0.06	1.01 ± 0.059	0.96 ± 0.049	0.93 ± 0.079	0.948 ± 0.033	0.924 ± 0.067	0.914 ± 0.075	0.884 ± 0.067
PRPF4B (UniProt Q13523)	1.04 ± 0.027	1.13 ± 0.05	1.19 ± 0.048	1.24 ± 0.056	1.37 ± 0.072	1.44 ± 0.11	1.52 ± 0.16	1.57 ± 0.19
UniProt Q12888 and related entries	0.977 ± 0.053	0.984 ± 0.063	1.01 ± 0.044	0.979 ± 0.087	0.984 ± 0.055	0.997 ± 0.065	1.03 ± 0.061	1 ± 0.066

Single entries from the results shown:
For NP40-soluble protein abundance (concentration: 4mM), COX17 (UniProt Q14061) is entered as 0.977 ± 0.023
For NP40-soluble protein abundance (concentration: 2mM), ERCC8 (UniProt Q13216) is entered as 1.12 ± 0.21
